Results as given in article PMC12906089.
These are yes or no findings as the source states them, for the method shown. Binding seen in cells or lysates may run through a third protein. Some binding calls cover weakened binding; strength is not graded here. For part of these data: Tags and fused reporters may be left off the sequences shown.

Protein sequences, listed by entry. Tags and fused reporters are not part of them.
UniProt P23771: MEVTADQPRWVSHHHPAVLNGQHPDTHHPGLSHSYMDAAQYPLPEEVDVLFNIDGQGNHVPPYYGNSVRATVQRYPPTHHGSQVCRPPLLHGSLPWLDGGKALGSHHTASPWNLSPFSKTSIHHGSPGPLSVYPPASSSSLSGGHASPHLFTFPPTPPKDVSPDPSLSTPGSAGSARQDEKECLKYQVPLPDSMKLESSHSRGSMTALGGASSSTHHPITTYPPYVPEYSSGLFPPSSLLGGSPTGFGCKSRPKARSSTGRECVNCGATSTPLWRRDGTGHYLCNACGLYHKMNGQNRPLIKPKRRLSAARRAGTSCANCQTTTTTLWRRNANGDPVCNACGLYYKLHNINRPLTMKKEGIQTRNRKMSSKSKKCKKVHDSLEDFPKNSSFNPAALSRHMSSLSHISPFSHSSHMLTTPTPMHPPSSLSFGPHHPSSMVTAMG
UniProt P27986: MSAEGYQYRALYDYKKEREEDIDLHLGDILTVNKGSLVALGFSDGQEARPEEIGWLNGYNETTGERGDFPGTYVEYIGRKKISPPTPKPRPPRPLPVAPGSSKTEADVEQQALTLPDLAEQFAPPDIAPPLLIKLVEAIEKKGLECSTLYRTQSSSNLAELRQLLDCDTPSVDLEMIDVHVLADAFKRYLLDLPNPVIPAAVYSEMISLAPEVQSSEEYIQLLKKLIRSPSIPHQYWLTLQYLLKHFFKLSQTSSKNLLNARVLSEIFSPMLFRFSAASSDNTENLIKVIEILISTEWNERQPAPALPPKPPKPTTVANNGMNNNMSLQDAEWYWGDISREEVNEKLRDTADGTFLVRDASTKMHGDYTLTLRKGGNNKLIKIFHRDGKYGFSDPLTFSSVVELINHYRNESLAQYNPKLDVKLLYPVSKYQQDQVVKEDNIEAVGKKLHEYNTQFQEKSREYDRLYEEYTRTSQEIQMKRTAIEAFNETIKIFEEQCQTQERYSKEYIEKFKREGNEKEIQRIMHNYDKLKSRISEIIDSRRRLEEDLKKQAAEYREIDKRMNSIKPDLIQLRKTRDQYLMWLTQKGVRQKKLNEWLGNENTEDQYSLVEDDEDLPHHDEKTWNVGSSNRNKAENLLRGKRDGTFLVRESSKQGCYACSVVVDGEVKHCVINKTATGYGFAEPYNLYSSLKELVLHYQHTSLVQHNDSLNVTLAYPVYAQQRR

B1: TRIM2 (enzyme, UniProt Q9C040 1-744)
chain: MASEGTNIPSPVVRQIDKQFLICSICLERYKNPKVLPCLHTFCERCLQNYIPAHSLTLSCPVCRQTSILPEKGVAALQNNFFITNLMDVLQRTPGSNAEESSILETVTAVAAGKPLSCPNHDGNVMEFYCQSCETAMCRECTEGEHAEHPTVPLKDVVEQHKASLQVQLDAVNKRLPEIDSALQFISEIIHQLTNQKASIVDDIHSTFDELQKTLNVRKSVLLMELEVNYGLKHKVLQSQLDTLLQGQESIKSCSNFTAQALNHGTETEVLLVKKQMSEKLNELADQDFPLHPRENDQLDFIVETEGLKKSIHNLGTILTTNAVASETVATGEGLRQTIIGQPMSVTITTKDKDGELCKTGNAYLTAELSTPDGSVADGEILDNKNGTYEFLYTVQKEGDFTLSLRLYDQHIRGSPFKLKVIRSADVSPTTEGVKRRVKSPGSGHVKQKAVKRPASMYSTGKRKENPIEDDLIFRVGTKGRNKGEFTNLQGVAASTNGKILIADSNNQCVQIFSNDGQFKSRFGIRGRSPGQLQRPTGVAVHPSGDIIIADYDNKWVSIFSSDGKFKTKIGSGKLMGPKGVSVDRNGHIIVVDNKACCVFIFQPNGKIVTRFGSRGNGDRQFAGPHFAAVNSNNEIIITDFHNHSVKVFNQEGEFMLKFGSNGEGNGQFNAPTGVAVDSNGNIIVADWGNSRIQVFDGSGSFLSYINTSADPLYGPQGLALTSDGHVVVADSGNHCFKVYRYLQ

What was measured:
[1] = molecular target: T1, OSMR (Oncostatin M receptor) of MKN28 cells, control group (human (endogenous in MKN28)) (UniProt Q99650); test: co-IP; MKN28 cells, control group (also siRNA knockdown of P85, and OSMR overexpression in P85-deficient cells); OSMR precipitated, P85 and P110 isoforms blotted
T1 sequence: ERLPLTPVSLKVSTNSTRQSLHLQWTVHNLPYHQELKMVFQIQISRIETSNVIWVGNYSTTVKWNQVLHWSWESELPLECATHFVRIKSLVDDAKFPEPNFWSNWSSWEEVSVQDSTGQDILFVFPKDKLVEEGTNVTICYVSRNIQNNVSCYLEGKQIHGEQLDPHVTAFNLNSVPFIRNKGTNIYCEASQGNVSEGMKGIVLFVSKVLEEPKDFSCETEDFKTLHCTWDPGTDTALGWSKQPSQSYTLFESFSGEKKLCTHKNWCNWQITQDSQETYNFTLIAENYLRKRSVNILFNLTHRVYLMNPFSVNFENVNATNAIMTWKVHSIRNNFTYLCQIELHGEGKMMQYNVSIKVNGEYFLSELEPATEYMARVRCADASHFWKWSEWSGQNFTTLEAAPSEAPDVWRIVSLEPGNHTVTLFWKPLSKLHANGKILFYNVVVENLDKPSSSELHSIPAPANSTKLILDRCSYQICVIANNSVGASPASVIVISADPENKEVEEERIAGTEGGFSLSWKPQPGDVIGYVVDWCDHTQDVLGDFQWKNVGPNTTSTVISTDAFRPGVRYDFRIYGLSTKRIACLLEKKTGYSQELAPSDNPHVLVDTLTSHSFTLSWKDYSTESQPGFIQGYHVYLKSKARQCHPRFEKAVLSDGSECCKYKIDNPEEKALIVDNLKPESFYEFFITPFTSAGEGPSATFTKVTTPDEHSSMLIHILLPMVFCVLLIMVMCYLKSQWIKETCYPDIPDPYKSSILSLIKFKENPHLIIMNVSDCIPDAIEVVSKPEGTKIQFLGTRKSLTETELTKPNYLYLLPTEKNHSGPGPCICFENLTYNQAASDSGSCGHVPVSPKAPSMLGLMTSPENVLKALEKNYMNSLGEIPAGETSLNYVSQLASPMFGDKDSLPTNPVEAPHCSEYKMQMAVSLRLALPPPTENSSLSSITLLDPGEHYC

[2] = molecular target: T2, FLAG-tagged OSMR (Oncostatin M receptor) (UniProt Q99650); test: co-IP; AGS and MKN28 cells transfected with FLAG-tagged OSMR plasmid; RIPA lysate, 500 ug, pre-cleared with Protein A/G magnetic beads; overnight at 4°C with anti-OSMR antibody or isotype control IgG; western blot
T2 sequence: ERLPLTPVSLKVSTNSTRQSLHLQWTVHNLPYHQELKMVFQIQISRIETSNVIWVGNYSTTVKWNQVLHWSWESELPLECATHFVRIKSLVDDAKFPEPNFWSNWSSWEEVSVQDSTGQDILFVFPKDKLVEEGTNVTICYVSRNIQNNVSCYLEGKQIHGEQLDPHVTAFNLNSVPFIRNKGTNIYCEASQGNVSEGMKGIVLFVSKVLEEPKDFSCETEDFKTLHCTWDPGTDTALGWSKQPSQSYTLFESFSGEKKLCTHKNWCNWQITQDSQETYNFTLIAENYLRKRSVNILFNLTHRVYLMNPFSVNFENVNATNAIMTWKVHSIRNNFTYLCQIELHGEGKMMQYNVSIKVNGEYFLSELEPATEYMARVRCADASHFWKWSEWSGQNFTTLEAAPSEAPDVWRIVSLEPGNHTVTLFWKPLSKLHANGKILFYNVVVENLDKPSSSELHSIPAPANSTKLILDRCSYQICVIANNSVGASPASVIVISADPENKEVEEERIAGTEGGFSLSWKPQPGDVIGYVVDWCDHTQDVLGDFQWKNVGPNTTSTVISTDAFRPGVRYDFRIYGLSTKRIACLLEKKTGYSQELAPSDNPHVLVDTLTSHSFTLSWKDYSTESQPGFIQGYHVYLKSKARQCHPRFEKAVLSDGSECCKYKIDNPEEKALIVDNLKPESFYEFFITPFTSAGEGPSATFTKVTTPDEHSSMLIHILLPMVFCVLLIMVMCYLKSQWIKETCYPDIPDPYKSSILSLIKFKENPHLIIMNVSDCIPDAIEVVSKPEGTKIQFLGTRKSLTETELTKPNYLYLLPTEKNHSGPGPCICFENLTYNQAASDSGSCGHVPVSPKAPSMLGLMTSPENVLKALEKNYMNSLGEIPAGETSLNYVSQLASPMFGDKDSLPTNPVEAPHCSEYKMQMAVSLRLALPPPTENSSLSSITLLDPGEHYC

GATA3 = GATA3 (UniProt P23771); test: co-IP; CO-IP of TRIM2 and GATA3 (Fig. 3K); cells and precipitating antibody not stated

Row | Molecule | binding [1] | binding [2] | binding (GATA3)
1 | PI3K subunit (P85) (from UniProt P27986 1-724) | binds | binds | –
2 | B1 | – | – | binds
